The list shows a part of the results.
Target: OsWRKY34 (Oryza sativa, UniProt Q0JBA9 1-250)
Assay: protein-binding microarray (RPBM); PBS, 2% BSA, 51.3 ng/ul salmon testes DNA, 50 uM zinc acetate, 200 nM TF, 25 C, 1 h; high values mean tight binding
Settings: protein: recombinant; tags: N-terminal polyhistidine and DsRed monomer fusion (pET32a); label: CyDye5-dUTP incorporated in the synthesized complementary strand; 3' TTTTT single-stranded linker to array surface; dsDNA, one strand shown
In short: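 The binding signal is fluorescence intensity per array feature (arbitrary units). Readings came from an Axon 4000B scanner after a washed, 2% BSA-blocked, double-stranded custom Agilent array had been incubated for 1 h at 25 °C with 200 nM protein and 50 µM zinc acetate. The protein was a Ni–NTA-purified transcription factor fused N-terminally to polyhistidine and DsRed, expressed in E. coli BL21-CodonPlus.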

Chains of the proteins cited; added tags and fusions are not shown.
UniProt Q0JBA9, entry or part of it: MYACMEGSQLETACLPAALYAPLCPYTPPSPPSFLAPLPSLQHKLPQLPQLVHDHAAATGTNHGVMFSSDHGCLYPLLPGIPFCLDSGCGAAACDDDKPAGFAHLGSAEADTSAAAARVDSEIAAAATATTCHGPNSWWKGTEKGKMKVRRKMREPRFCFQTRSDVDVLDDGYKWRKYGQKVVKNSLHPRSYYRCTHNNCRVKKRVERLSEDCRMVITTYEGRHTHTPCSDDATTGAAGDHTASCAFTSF

Row | Sequence | binding signal
1 | GCACGCACCACCTCGCGCGGTATAAATTCCCCGCGCCCTCCGGAGTCACCTAGTGCAG | 8750 fluorescence intensity (a.u.)
2 | ACCACTCCTCCTACTCGACCTCGCGCTCGCTCGCTCGCCCCGGAGTCACCTAGTGCAG | 8540 fluorescence intensity (a.u.)
3 | TTTTGCTCGCTCCTGTAGAATCTCGTTTCCTTGCACGTAACGGAGTCACCTAGTGCAG | 9650 fluorescence intensity (a.u.)
4 | AAATTTTGACTCCTTCAGTTAATGATTTTCGTATACAAATCGGAGTCACCTAGTGCAG | 8180 fluorescence intensity (a.u.)
5 | ATAATCGAACTGATTCATATGAAAATACTGTATTTTTTTCCGGAGTCACCTAGTGCAG | 8280 fluorescence intensity (a.u.)
6 | GCCCATTTTGATCTTGGCCGTCCATTCCATTCCAGTACGACGGAGTCACCTAGTGCAG | 11600 fluorescence intensity (a.u.)
7 | ACTGTGCTTCTTCTCCGTGTTGCCACCTCATCGCCATCGCCGGAGTCACCTAGTGCAG | 9650 fluorescence intensity (a.u.)
8 | CACGCATGCCGCTCCCATTCGCGCGCGACACGAACGCGCCCGGAGTCACCTAGTGCAG | 8410 fluorescence intensity (a.u.)
9 | AAACCAAACCCTAATATTTCCACCACCATCTACCCATCCTCGGAGTCACCTAGTGCAG | 8350 fluorescence intensity (a.u.)
10 | TATGTTTGACTAGTTTGTCACTGCTACTCCATTCGTCCCACGGAGTCACCTAGTGCAG | 11300 fluorescence intensity (a.u.)
11 | TGTGCTTCTTTTTTTAATTTCTCTCTCTGTTTGCTTCTCTCGGAGTCACCTAGTGCAG | 9720 fluorescence intensity (a.u.)
12 | GAAATCCAAATATGTCTGTTGATCGCTTCCATTTTTACTCCGGAGTCACCTAGTGCAG | 8800 fluorescence intensity (a.u.)
13 | GATCTATATAACCCCGCGCCATGCAACGCCGCCCCGGCTTCGGAGTCACCTAGTGCAG | 8380 fluorescence intensity (a.u.)
14 | GTACGTCCAGCCTGCAGCAATTCGGCCGCCCGCCCGTTGACGGAGTCACCTAGTGCAG | 10700 fluorescence intensity (a.u.)
15 | ATCCAACAGACTGTCCATTCCACACTCTCCATTTTTACTTCGGAGTCACCTAGTGCAG | 8960 fluorescence intensity (a.u.)
16 | CGTCGTGACCCGCGCCCTGAGTTGGTTGCCTGCCTCGGATCGGAGTCACCTAGTGCAG | 8340 fluorescence intensity (a.u.)
17 | TATCATATACTCCTACGTCCCGTGTGGTGGTCCAGATGAGCGGAGTCACCTAGTGCAG | 8110 fluorescence intensity (a.u.)
18 | CACCCGTCGCGTCCAAAATCCAAATCCGCCGCCGCGATCGCGGAGTCACCTAGTGCAG | 9490 fluorescence intensity (a.u.)
19 | TCCTTTGACTTTTTAACCAGCTGTCTACTAGTAGTACTACCGGAGTCACCTAGTGCAG | 17800 fluorescence intensity (a.u.)
20 | CATGTGGCTAGAGCTCGAATGTAGTACATTTTGCAATTTACGGAGTCACCTAGTGCAG | 8560 fluorescence intensity (a.u.)
21 | TACCCACCCGACACTTAATTTTTTATCCCAACCAGCTCAACGGAGTCACCTAGTGCAG | 9130 fluorescence intensity (a.u.)
22 | ATTAGCGATGTGTTGTGGTGACTTCATTAATATTAAGATACGGAGTCACCTAGTGCAG | 8750 fluorescence intensity (a.u.)
23 | TAAGGGTGTGTGGTGAAATTAACTAACATATGTTATGTGTCGGAGTCACCTAGTGCAG | 8150 fluorescence intensity (a.u.)
24 | CTCTCTCTCACACACACACACATCTCTCGATCGCTTGGACCGGAGTCACCTAGTGCAG | 9250 fluorescence intensity (a.u.)
25 | TACTAGTCAATGCACATATATAAGTATTCATTGATCATCCCGGAGTCACCTAGTGCAG | 8530 fluorescence intensity (a.u.)
26 | CCCCGCGCGCGTTCTCCCCTCGCCCGCCGCCTGCGCGCCTCGGAGTCACCTAGTGCAG | 8210 fluorescence intensity (a.u.)
27 | CCTATCCACGAAAGATTTCAGTTCCCAACACCTATATCTTCGGAGTCACCTAGTGCAG | 9020 fluorescence intensity (a.u.)

Some of the entries above in a different format.
Row,Sequence,binding signal
4,AAATTTTGACTCCTTCAGTTAATGATTTTCGTATACAAATCGGAGTCACCTAGTGCAG,8180 fluorescence intensity (a.u.)
5,ATAATCGAACTGATTCATATGAAAATACTGTATTTTTTTCCGGAGTCACCTAGTGCAG,8280 fluorescence intensity (a.u.)

(list continues)

Row | Sequence | binding signal
28 | GAGTTTGTTTGACATTCCTTATCCTCAATATCAGAAATTTCGGAGTCACCTAGTGCAG | 8420 fluorescence intensity (a.u.)
29 | ACCACCGCATCCCCAACACCTCACCTCACCTCCTTACACCCGGAGTCACCTAGTGCAG | 8180 fluorescence intensity (a.u.)
30 | AACGTCAAATCTGTACAAGGCTATTCCTTCGTCATAATATCGGAGTCACCTAGTGCAG | 9250 fluorescence intensity (a.u.)
31 | AGTCGACCCTGCCCACTGAAAAGTTCTCATCTTGTCGGCGCGGAGTCACCTAGTGCAG | 9900 fluorescence intensity (a.u.)
32 | CCCTTCTTTCCTTCCTTCCTACCGGCCTGCACTGCACCTTCGGAGTCACCTAGTGCAG | 8280 fluorescence intensity (a.u.)
33 | CACCACACACCTGCCGGCCCATCTGCCTACGCGTCCTGTACGGAGTCACCTAGTGCAG | 8040 fluorescence intensity (a.u.)
34 | GCGGCCGGCCGAGGGGTGGGAGCCGTCCGATCGCGGCGCGCGGAGTCACCTAGTGCAG | 8550 fluorescence intensity (a.u.)
35 | TGCTGTACGTCACCCCTGGTTTGACACTCGCGCGCAGCCTCGGAGTCACCTAGTGCAG | 11300 fluorescence intensity (a.u.)
36 | TTCTCTATATTCTTTTAGATATCTCATCCCAGCCAATTCTCGGAGTCACCTAGTGCAG | 8210 fluorescence intensity (a.u.)
37 | TGTTGGTCGCCTACAGTCAGTTAGTACTTCCTAGTTCACTCGGAGTCACCTAGTGCAG | 8830 fluorescence intensity (a.u.)
38 | GCGGCTTCGCCTCCTCGTGATTTGGGGCGCGGGTGGGTGGCGGAGTCACCTAGTGCAG | 12400 fluorescence intensity (a.u.)
39 | TGCTTTATCTCGGAGGACATTTCGATCATAATTCCAACAACGGAGTCACCTAGTGCAG | 9230 fluorescence intensity (a.u.)
40 | CCGCCGCGGAGCCCGCGGAGTCCGCCACGGTGGGGAGGGACGGAGTCACCTAGTGCAG | 8060 fluorescence intensity (a.u.)
41 | GCCACTACACAGTATGTTTCGCTTTCCTCGGGTCTACGGCCGGAGTCACCTAGTGCAG | 8190 fluorescence intensity (a.u.)
42 | CCCTCTCTCTCTCTGCTTCGAATTCCTCACCTCACCTCACCGGAGTCACCTAGTGCAG | 9110 fluorescence intensity (a.u.)
43 | GGGTTGGGTGGGTGCTGTAATATGGGGAGATACTGACTACCGGAGTCACCTAGTGCAG | 19200 fluorescence intensity (a.u.)
44 | TGATCATTCCACCACACTCCATTTCTTCCTCCTGACCTCCCGGAGTCACCTAGTGCAG | 8240 fluorescence intensity (a.u.)
45 | CAAGAGCACGGTCTTCGAAAAACAACTTTGACCATCATTTCGGAGTCACCTAGTGCAG | 9290 fluorescence intensity (a.u.)
46 | TTCATTTTTTCTCTTCGGTTTTCACTTGGATCTTGTTGATCGGAGTCACCTAGTGCAG | 9560 fluorescence intensity (a.u.)
47 | AGACCCTCAAGCTTTCCTCTTTAGTTTTTATCTCATTTAACGGAGTCACCTAGTGCAG | 8300 fluorescence intensity (a.u.)
48 | GGGGTTTGATGGTCCTCTAAAGTTGTAGTAACTCGATATGCGGAGTCACCTAGTGCAG | 8540 fluorescence intensity (a.u.)
49 | TGATTTTGTTTGTTGATTCTTTTTCCTTGGAAAGAAACACCGGAGTCACCTAGTGCAG | 8350 fluorescence intensity (a.u.)
50 | CTTCATATTTCTGTTACTGCAGTAGCCTTTGGGTTCCTTCCGGAGTCACCTAGTGCAG | 8050 fluorescence intensity (a.u.)
51 | GGGAGATTTGTTGCAACGGAGGGCATTGAGTGGTGGGGACCGGAGTCACCTAGTGCAG | 8570 fluorescence intensity (a.u.)
52 | ACTCCCTCCTTCCCTAAATGTTTGACACCGTTGACTTTTTCGGAGTCACCTAGTGCAG | 19600 fluorescence intensity (a.u.)
53 | ATCTCATCCCAGCCAATTCTGCATTCCTATGAGCACGTACCGGAGTCACCTAGTGCAG | 9750 fluorescence intensity (a.u.)
54 | AAAATCCAACGCTCAGGATCGTCTCCACCTCTCCACCGCGCGGAGTCACCTAGTGCAG | 11500 fluorescence intensity (a.u.)
